In patent US20130280269A1, “Manipulation of HSP70 and IRE1Alpha Protein Interactions” (National University of Ireland, priority 2010, published 2013):
Results are given in words; binding and its absence hold for the method and conditions named. In cells and extracts the contact can be indirect. Some entries that bind do so weakly or less than the wild type.

Sequences of proteins named here, by UniProt entry; tags and fusion partners are left off. A change or cut given only in a name is not applied to a line headed by its entry.
UniProt O75460: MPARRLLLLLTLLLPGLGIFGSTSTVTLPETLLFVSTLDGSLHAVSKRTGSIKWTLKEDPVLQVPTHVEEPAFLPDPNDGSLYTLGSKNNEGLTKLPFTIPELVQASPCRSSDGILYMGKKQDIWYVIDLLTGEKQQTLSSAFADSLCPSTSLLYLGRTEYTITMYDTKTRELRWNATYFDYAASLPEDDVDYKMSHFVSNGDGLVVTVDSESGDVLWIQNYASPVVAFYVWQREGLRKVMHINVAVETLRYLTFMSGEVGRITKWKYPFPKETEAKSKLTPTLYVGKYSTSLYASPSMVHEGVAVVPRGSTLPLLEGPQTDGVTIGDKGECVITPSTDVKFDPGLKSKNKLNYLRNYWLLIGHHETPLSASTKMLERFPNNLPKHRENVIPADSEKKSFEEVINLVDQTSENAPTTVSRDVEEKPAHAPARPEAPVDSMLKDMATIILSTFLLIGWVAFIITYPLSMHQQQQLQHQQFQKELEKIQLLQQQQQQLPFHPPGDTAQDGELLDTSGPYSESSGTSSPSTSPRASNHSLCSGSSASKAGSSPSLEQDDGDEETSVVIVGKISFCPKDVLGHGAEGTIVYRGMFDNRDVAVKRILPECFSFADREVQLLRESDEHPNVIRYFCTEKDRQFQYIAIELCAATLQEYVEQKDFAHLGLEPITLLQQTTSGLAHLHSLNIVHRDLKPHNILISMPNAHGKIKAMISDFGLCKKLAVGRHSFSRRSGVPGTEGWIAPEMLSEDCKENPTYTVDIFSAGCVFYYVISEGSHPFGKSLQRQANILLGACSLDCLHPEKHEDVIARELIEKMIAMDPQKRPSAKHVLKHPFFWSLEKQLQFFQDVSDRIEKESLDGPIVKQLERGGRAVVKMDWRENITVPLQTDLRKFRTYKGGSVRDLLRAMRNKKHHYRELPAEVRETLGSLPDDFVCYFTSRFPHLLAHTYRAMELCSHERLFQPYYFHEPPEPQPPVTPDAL
UniProt P0DMV8: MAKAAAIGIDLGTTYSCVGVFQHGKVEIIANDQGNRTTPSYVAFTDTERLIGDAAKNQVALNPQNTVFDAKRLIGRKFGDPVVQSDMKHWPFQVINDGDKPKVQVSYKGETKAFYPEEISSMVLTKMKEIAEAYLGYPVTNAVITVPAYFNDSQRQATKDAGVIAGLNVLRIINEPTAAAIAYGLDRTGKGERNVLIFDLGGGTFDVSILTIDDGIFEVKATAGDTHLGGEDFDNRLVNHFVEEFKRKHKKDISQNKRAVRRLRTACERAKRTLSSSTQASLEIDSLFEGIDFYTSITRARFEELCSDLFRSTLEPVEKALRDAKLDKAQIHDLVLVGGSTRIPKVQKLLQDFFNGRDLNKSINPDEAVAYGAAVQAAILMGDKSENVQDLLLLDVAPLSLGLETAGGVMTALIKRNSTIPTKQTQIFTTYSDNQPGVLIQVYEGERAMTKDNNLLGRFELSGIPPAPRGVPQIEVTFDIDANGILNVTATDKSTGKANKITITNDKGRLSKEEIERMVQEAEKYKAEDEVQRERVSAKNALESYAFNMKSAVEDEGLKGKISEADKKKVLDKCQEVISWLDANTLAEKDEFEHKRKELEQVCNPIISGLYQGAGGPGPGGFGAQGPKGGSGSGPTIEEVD

Assays:
[1] = target: wild-type IRE1α FL-HA (Homo sapiens (Human)) (UniProt O75460); assay: co-immunoprecipitation and western blot (legend of FIG. 5)
[2] = target: wild-type IRE1α FL-HA (Homo sapiens (Human)) (UniProt O75460); assay: co-immunoprecipitation with HA-agarose from PC12 cells, western blot (FIG. 5D)
[3] = target: wild-type IRE1α FL-HA (Homo sapiens (Human)) (UniProt O75460); assay: co-immunoprecipitation with HA-agarose from Hsp72-expressing PC12 cells, western blot; the interaction was not altered by thapsigargin treatment (FIG. 5C)

| Substance | binding [1] | binding [2] | binding [3] |
| --- | --- | --- | --- |
| wild-type Hsp72 (inducible form of Hsp70), stably expressed in PC12 cells (from UniProt P0DMV8 2-641) | binds | binds | binds |
| ΔEEVD-Hsp72 (from UniProt P0DMV8 1-637) |  | binds |  |
